Data from patent publication US11054425B2, “System and method for identification and characterization of transglutaminase species” (Roche Sequencing Solutions, Inc., priority 2014, dated 2021).
Some of these results come from one statement about several compounds together.

Experiments:
[1] = system: S. mobaraensis MTG; test: GLDH-coupled assay in solution (NADH oxidation); format: biochemical, Streptomyces mobaraensis; settings: enzyme S. mobaraensis MTG
Description: For the GLDH coupled assay, to determine whether the KalbTG peptides selected in the array assay were also preferred substrates in a solution reaction and to quantify cross-reactivity of KalbTG and S. mobaraensis MTG with various substrates, a continuous glutamate dehydrogenase (GLDH)-coupled assay for S. mobaraensis MTG activity (see Oteng-Pabi, et al., 2013. Analytical biochemistry 441(2): 169-173) was applied. […]
Reactions were started by the addition of 5 μg ml^−1 of S. mobaraensis MTG or KalbTG and the oxidation of NADH was continuously recorded at 340 nm for 60 minutes using a Biotek Synergy H4 microplate reader, temperature controlled at 37° C., with short shaking intervals before each measurement. After a short lag phase where the GLDH was saturated by transglutaminase-mediated release of ammonia, linear rates of absorbance versus time corresponding to transglutaminase turnover were observed and subjected to Michaelis-Menten kinetic analysis. Rates of absorbance in millioptical density units per minute (mOD min^−1) were converted into molar rates of NADH turnover (pmol s^−1) using the formula of Equation 1 (previously determined by an NADH standard curve): Turnover rate=|Absorbance rate|*1.111 (Eq. 1)

[2] = system: β-casein; test: commercial assay Zedira MTG-ANiTA-KIT; format: biochemical; settings: β-casein cross-linking substrate, deamidation detected by GLDH dependent oxidation of NADPH

Molecule: YRYRQ (N-terminal Z (Cbz) group) [KalbTG glutamine-donor (Q-tag) 5-mer]
- Km [1]: 600 to 900 µM

B1: SlyD-fused KalbTG: KalbTG fusion with two SlyD chaperones (protein)
chain: MKVAKDLVVSLAYQVRTEDGVLVDESPVSAPLDYLHGHGSLISGLETALEGHEVGDKFDVAVGANDAYGQYDENLVQRVPKDVFMGVDELQVGMRFLAETDQGPVPVEITAVEDDHVVVDGNHMLAGQNLKFNVEVVAIREATEEELAHGHVHGAHDHHHDHDHDGGGSGGGSGGGSGGGSGGGSGGGMKVAKDLVVSLAYQVRTEDGVLVDESPVSAPLDYLHGHGSLISGLETALEGHEVGDKFDVAVGANDAYGQYDENLVQRVPKDVFMGVDELQVGMRFLAETDQGPVPVEITAVEDDHVVVDGNHMLAGQNLKFNVEVVAIREATEEELAHGHVHGAHDHHHDHDHDGGGSGGGSGGGSGGGSGGGSGGGIEGRMGGGSTTAQAAAVAAPTPRAPLAPPLAEDRSYRTWRVEDYVEAWERYHGREMTEDERENLARGCIGVTVVNLNREDLSNPPLNLSFGSLRTAEAVQAALNKIVDTHPSPAQYEAAVAKDPILKRLKNVVKALPSWIDSAKLKASIFSKRFYSWQNPDWSEERAHTTYRPDRETDQVDMSTYRYRARPGYVNFDYGWFDQDTNTWWHANHEEPRMVVYQSTLRHYSRPLQDFDEQVFTVAFAKKDGGGSGHHHHHHHH
modifications: synthetic peptide sequence - EcSlyD2-Xa- KalbTGt3-8xHis-tag; SlyD; factor_Xa_cleavage_site; K-albida_MTG; 8xHis-tag
notes: KalbTG fusion with two SlyD chaperones
- activity [2]: at least 1.65 U/mg

B2: KalbTGt3: KalbTG enzyme from EcSlyD2-Xa-KalbTGt3-8×His after factor Xa and trypsin digest (protein)
chain: APLAPPLAEDRSYRTWRVEDYVEAWERYHGREMTEDERENLARGCIGVTVVNLNREDLSNPPLNLSFGSLRTAEAVQAALNKIVDTHPSPAQYEAAVAKDPILKRLKNVVKALPSWIDSAKLKASIFSKRFYSWQNPDWSEERAHTTYRPDRETDQVDMSTYRYRARPGYVNFDYGWFDQDTNTWWHANHEEPRMVVYQSTLRHYSRPLQDFDEQVFTVAFAKKDGGGSGHHHHHHHH
modifications: synthetic peptide sequence - KalbTGt3-8xHis-tag (post-trypsin digest); K-albida_MTG; 8xHis-tag
notes: KalbTG enzyme from EcSlyD2-Xa-KalbTGt3-8×His after factor Xa and trypsin digest
- activity [2]: at least 1.65 U/mg
